Source: patent US20070275083A1
No constants are given. Whether binding was seen depends on the method and setting. Some entries that bind do so weakly or less than the wild type.

Amino acid sequences for entries named in this document (tags omitted). A change or cut given only in a name is not applied to a line headed by its entry.
UniProt Q5VYX0: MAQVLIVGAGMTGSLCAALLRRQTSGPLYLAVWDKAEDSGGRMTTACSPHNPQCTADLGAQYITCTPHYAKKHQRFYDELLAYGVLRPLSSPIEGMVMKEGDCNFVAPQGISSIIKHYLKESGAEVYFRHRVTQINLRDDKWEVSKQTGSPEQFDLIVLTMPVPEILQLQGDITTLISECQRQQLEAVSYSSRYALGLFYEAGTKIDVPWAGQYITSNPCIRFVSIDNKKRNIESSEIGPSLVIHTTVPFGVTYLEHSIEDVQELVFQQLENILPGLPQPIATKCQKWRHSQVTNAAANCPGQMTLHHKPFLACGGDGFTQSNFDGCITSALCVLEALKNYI

Molecular target: human renalase (Monoamine Oxidase C), endogenous protein in human plasma, urine, kidney and heart (human) (UniProt Q5VYX0)
Assay: gel image of renalase affinity purified from human urine

binding: binds
B1: human renalase (Monoamine Oxidase C), endogenous protein in human plasma, urine, kidney and heart (enzyme)
chain: AALLRRQTSGPLYLAVWDKADDSGGRMTTACSPHNPQCTADLGAQYITCTPHYAKKHQRFYDELLAYGVLRPLSSPIEGMVMKEGDCNFVAPQGISSIIKHYLKESGAEVYFRHRVTQINLRDDKWEVSKQTGSPEQFDLIVLTMPVPEILQLQGDITTLISECQRQQLEAVSYSSRYALGLFYEAGTKIDVPWAGQYITSNPCIRFVSIDNKKRNIESSEIGPSLVIHTTVPFGVTYLEHSIEDVQELVFQQLENILPGLPQPIATKCQKWRHSQVTNAAANCPGQMTLHHKPFLACGGDGFTQSNFDGCITSALCVLEALKNYI
